# Where “and” joins values, the source holds several entries; their conditions need not be identical. Equal entries are not always repeated. Screen size: about 360,000 compounds; about 7,500 (2.1%) were called active. The inconclusive results got no clear call from the source; some entries with a clear call stand among them for comparison. Calls come from the whole dose curve; as a rule, active = well fitted inhibition curve with a large enough effect; inconclusive = small, poorly fitted or top-dose-only effect, or effect the other way; inactive = flat fitted curve, though single readings scatter. Potencies beside an inconclusive call are fits to weak or partial responses and may not hold up.
# Experiment: Nrf2 qHTS screen for inhibitors; note: nearly all actives have a fitted effect of over 60% in size
# Conditions: A549 ARE-Fluc reporter, luciferase luminescence, 18-24 h; series mostly up to 46 µM
# How it was run: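 Cells were seeded and rested 2 h, then exposed to compounds for 18-24 h. CellTiter-Fluor was read first as a viability measure. BugLite was added 15 min before the final luminescent read of ARE-luciferase activity in A549 cells.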
# Potency is the fitted concentration of half-maximal effect.
row,SMILES,Potency
1,Nc1nn(-c2ccccc2)c(N)c1N=Nc1ccccc1,"inconclusive: 29.1 µM [activator, single point]"
2,Cc1ccc(S(=O)(=O)N2CCc3cc(C(=O)N(C)Cc4ccccc4)ccc32)cc1,"inconclusive: 16.4 µM [falling, partial curve, poor fit]"
3,CC(=O)N1CCc2c(sc3c2c(=O)n(-c2ccc(F)cc2)c(=O)n3Cc2cc(C)ccc2C)C1,inactive
4,COc1ccc(-c2noc(-c3ccc(N4CCN(C)CC4)c([N+](=O)[O-])c3)n2)cc1,"inconclusive: 32.6 µM [falling, single point]"
5,CCNc1oc(COc2cccc(C)c2)nc1C#N,"inconclusive: 2.91 µM [activator, full curve]"
6,COc1ccc(OC)c2sc(N3CCN(c4ccccc4)CC3)nc12,inactive
7,COCC(C)n1c(-c2ccc3c(c2)NC(=O)CO3)csc1=Nc1ccc(OC(F)F)cc1 (stereo not given),active: 8.2 µM and active: 10.3 µM
8,COc1cc2cc(/C=C/C(=O)c3ccco3)c(Cl)nc2cc1OC,inactive
9,COc1ccc(S(=O)(=O)c2c(O)c(C)cc(NS(=O)(=O)c3ccc(Cl)cc3)c2C(C)C)cc1,"inconclusive: 29.1 µM [falling, single point]"
10,Cc1nn(-c2nc3ccccc3[nH]2)c(=O)c2ccccc12,active: 1.3 µM
11,Cc1ccccc1OCC(O)Cn1c(=N)n(Cc2ccccc2)c2ccccc21 (stereo not given),inactive
12,CC(=O)Nc1cccc(NC(=O)CSc2ncc(-c3ccc(Cl)cc3)n2Cc2ccco2)c1,active: 18.4 µM
13,O=C1C2C(c3ccccc3)(C(=O)N1c1ccc(Cl)cc1)C2(c1ccccc1)c1ccccc1 (stereo not given),inactive
14,O=C(Nc1nccs1)c1ccc(-c2ccc(F)cc2)o1,"inconclusive: 2.59 µM [activator, full curve]"
15,O=C(c1cccc(-c2nnc(-c3ccccc3)o2)c1)N1CCCCC1,"inconclusive: 2.06 µM [activator, partial curve]"
16,COC(=O)C1=C(C)NC(C)=C(C(=O)OC)C1c1ccc(-c2cccc([N+](=O)[O-])c2)o1,"inconclusive: 8.2 µM [falling, partial curve, poor fit]"
17,CC(C)(C)c1ccc(-c2nc(SCCOc3ccc(Cl)cc3)n3[nH]c(=O)cc3n2)cc1,"inconclusive: 6.51 µM [activator, single point]"
18,N#Cc1c(NC(=O)CCC(=O)O)sc2c1CCCC2,"inconclusive: 25.9 µM [activator, single point]"
19,O=C(CCc1ccccc1)Nc1nc2c(F)cc(F)cc2s1,"inconclusive: 20.6 µM [activator, single point]"
20,COc1ccccc1-n1nc(-c2ccccc2)c2cnc3c(F)cc(F)cc3c21,inactive
21,O=C(Cc1ccc(Cl)cc1)Nc1ncc([N+](=O)[O-])s1,inactive
22,CCC(NC(=O)c1cc(COc2ccc(Cl)cc2OC)on1)c1ccncc1 (stereo not given),"inconclusive: 29.1 µM [falling, single point]"

row,SMILES,Potency
1,COc1cccc(C(=O)Nc2nc3ccccc3[nH]2)c1,"inconclusive: 0.291 µM [activator, full curve, poor fit]"
2,CCOC(=O)C1CCN(C(=O)c2ccc3c(c2)NC(=O)/C(=C/c2ccccc2)S3)CC1,"inconclusive: 25.9 µM [falling, single point]"
3,O=C(Nc1ccc2cccnc2c1)c1ccc(Br)cc1,"inconclusive: 29.1 µM [activator, single point]"
4,CCCN1CCN(C(=O)Cn2ncc3c([nH]c4ccc(C)cc43)c2=O)CC1,"inconclusive: 18.4 µM [activator, partial curve, poor fit]"
5,Cc1cccnc1NC(=O)c1ccc([N+](=O)[O-])o1,"inconclusive: 6.51 µM [activator, partial curve, poor fit]"
6,Cc1ccc(NS(=O)(=O)c2cc3c4c(cccc4c2)C(=O)NC3=O)cc1C,active: 14.6 µM
7,CCOC(=O)Cc1nn(Cc2nc(-c3ccc(C)cc3)cs2)c(=O)c2ccccc12,"inconclusive: 23.1 µM [falling, single point]"
8,CC(C)CN(C(=O)COC(=O)Cc1c[nH]c2ccccc12)C1CCS(=O)(=O)C1 (stereo not given),"inconclusive: 0.231 µM [falling, partial curve, poor fit]"
9,CCC1CN(C(=O)Nc2cccc(C)c2)c2cc(C)ccc2O1 (stereo not given),"inconclusive: 0.291 µM [falling, full curve, poor fit]"
10,O=c1[nH]c(=S)[nH]c2scc(-c3ccc(Br)cc3)c12,inactive
11,Cc1ccc(COc2cccc(/C=N/NC(=O)c3nnn(-c4nonc4N)c3C)c2)cc1,"inconclusive: 29.1 µM [activator, single point]"
12,COc1ccccc1NC(=O)CN1CCN(CC(=O)Nc2ccccc2Cl)CC1,inactive
13,COCCN(C(=O)COC(=O)COc1ccc2c(c1)CCC2)c1c(N)n(Cc2ccccc2)c(=O)[nH]c1=O,"inconclusive: 10.3 µM [activator, partial curve, poor fit]"
14,CC(C)(C)c1ccc(C(=O)N2CCN(CCNC(=O)C(=O)NCc3ccccc3)CC2)cc1,"inconclusive: 32.6 µM [falling, single point]"
15,COC(=O)N/N=C/c1c(C)c(C(=O)c2ccc(F)cc2)n2ccccc12,"inconclusive: 25.9 µM [falling, single point]"
16,Cc1cc2nc(N3CCN(C(=O)c4ccco4)CC3)sc2cc1C,"inconclusive: 2.06 µM [activator, partial curve, poor fit]"
17,C=C1c2nc3ccccc3n2C=C(c2ccc(C)cc2)N1c1ccccc1,inactive
18,COc1ccc(OC)c(/C=C/C(=O)N2C(=O)c3cccc(N)c3C2=O)c1,"inconclusive: 11.6 µM [falling, partial curve]"
19,CN(C)S(=O)(=O)Oc1cccc(C(=O)Nc2ccc(Cl)c(Cl)c2)c1,"inconclusive: 0.461 µM [activator, full curve]"
20,Cc1ccc(CNC(=O)CCc2c(C)nc3c(c(C)nn3-c3ccc(C)cc3)c2C)cc1,inactive
21,O=C(c1cnn2c1NC(c1ccco1)CC2C(F)(F)F)N1CCN(c2cccc(Cl)c2)CC1 (stereo not given),"inconclusive: 20.6 µM [falling, single point]"
22,O=C(c1cc2cc(Cl)ccc2o1)N1CCCCCC1,"inconclusive: 1.46 µM [activator, partial curve, poor fit]"

row,SMILES,Potency
1,Cc1ccc(NC(=O)CSc2nc3ccc(Br)cc3[nH]2)c(C)c1,"inconclusive: 32.6 µM [falling, single point]"
2,CC(C(=O)Nc1ccc(Cl)cc1)c1ncc(C(F)(F)F)cc1Cl (stereo not given),"inconclusive: 20.6 µM [falling, partial curve, poor fit]"
3,O=C(CNC(=O)c1ccccc1)OC(C(=O)Nc1cc([N+](=O)[O-])ccc1F)c1ccccc1 (stereo not given),inactive
4,COc1ccc(/C=N/NC(=O)Cc2csc(Nc3cccc(C(F)(F)F)c3)n2)cc1C,"inconclusive: 29.1 µM [falling, single point]"
5,Cc1ccccc1CSc1nnc(-c2cccnc2)n1N,"inconclusive: 25.9 µM [activator, partial curve]"
6,COc1cc(OC)cc(-c2nnc3n2N=C(c2ccccc2OC)CS3)c1,"inconclusive: 29.1 µM [falling, single point]"
7,CN(C)CCN(C(=O)c1ccco1)c1nc2c(F)cc(F)cc2s1,"inconclusive: 23.1 µM [activator, partial curve, poor fit]"
8,CCCCCCn1c2c(c(=N)c3c1CCC3)CCC2,active: 14.6 µM
9,O=c1cccccc1NN=C1CCCCC1,"inconclusive: 25.9 µM [activator, single point]"
10,Cc1cccc(NC(=O)CSc2nc3ccccc3nc2N2CCC(C)CC2)c1,"inconclusive: 5.8 µM [activator, full curve]"
11,CCOc1ccc(N(Cc2ccccc2)C(=O)c2nc(SCC)ncc2Cl)cc1,"inconclusive: 29.1 µM [falling, single point]"
12,O=C(COc1ccc(F)cc1)Nc1nnc(S(=O)(=O)N2CCc3ccccc32)s1,inactive
13,Oc1ccc(C[C@H]2CNC(=S)N2CC2CCCN2C[C@H](Cc2ccc(O)cc2)N2C[C@H](Cc3ccc(O)cc3)N(CC3CCCCCC3)C2=S)cc1 (stereo not given in full),"inconclusive: 18.4 µM [falling, single point]"
14,CCOc1ccccc1OCC(=O)Nc1ccc(S(=O)(=O)N(C)C)cc1,"inconclusive: 16.4 µM [activator, partial curve, poor fit]"
15,CC1Cc2ccccc2C(=O)N1 (stereo not given),"inconclusive: 2.91 µM [falling, partial curve, poor fit]"
16,CCOC(=O)N/N=C\c1cccc(OC)c1OC/C=C/c1ccccc1,"inconclusive: 13 µM [activator, partial curve, poor fit]"
17,N/C(=N\OC(=O)C12CC3CC(CC(C3)C1)C2)c1cccnc1,"inconclusive: 29.1 µM [activator, single point]"
18,CC1(C)CC2CC(C)(CN2S(=O)(=O)c2ccc(C(=O)Nc3cc(S(=O)(=O)N4CCOCC4)ccc3Cl)cc2)C1 (stereo not given),"inconclusive: 3.66 µM [falling, partial curve, poor fit]"
19,Cc1ccc(C(=O)N2CCCC2)cc1S(=O)(=O)Nc1cccc(C)c1C,"inconclusive: 20.6 µM [falling, partial curve, poor fit]"
20,COc1cc(SC)ccc1C(=O)NNC(=O)c1cc(C)oc1C,"inconclusive: 4.61 µM [activator, full curve]"
21,c1coc(-c2ccnc(-n3cccc3)n2)c1,"inconclusive: 16.4 µM [activator, single point]"

# Given with tabs: entries from further up
row	SMILES	Potency
1	Cc1ccc(NC(=O)CSc2nc3ccc(Br)cc3[nH]2)c(C)c1	inconclusive: 32.6 µM [falling, single point]
2	CC(C(=O)Nc1ccc(Cl)cc1)c1ncc(C(F)(F)F)cc1Cl (stereo not given)	inconclusive: 20.6 µM [falling, partial curve, poor fit]
3	O=C(CNC(=O)c1ccccc1)OC(C(=O)Nc1cc([N+](=O)[O-])ccc1F)c1ccccc1 (stereo not given)	inactive
4	COc1ccc(/C=N/NC(=O)Cc2csc(Nc3cccc(C(F)(F)F)c3)n2)cc1C	inconclusive: 29.1 µM [falling, single point]
5	Cc1ccccc1CSc1nnc(-c2cccnc2)n1N	inconclusive: 25.9 µM [activator, partial curve]
6	COc1cc(OC)cc(-c2nnc3n2N=C(c2ccccc2OC)CS3)c1	inconclusive: 29.1 µM [falling, single point]
7	CN(C)CCN(C(=O)c1ccco1)c1nc2c(F)cc(F)cc2s1	inconclusive: 23.1 µM [activator, partial curve, poor fit]
8	CCCCCCn1c2c(c(=N)c3c1CCC3)CCC2	active: 14.6 µM
9	O=c1cccccc1NN=C1CCCCC1	inconclusive: 25.9 µM [activator, single point]
10	Cc1cccc(NC(=O)CSc2nc3ccccc3nc2N2CCC(C)CC2)c1	inconclusive: 5.8 µM [activator, full curve]
11	CCOc1ccc(N(Cc2ccccc2)C(=O)c2nc(SCC)ncc2Cl)cc1	inconclusive: 29.1 µM [falling, single point]
12	O=C(COc1ccc(F)cc1)Nc1nnc(S(=O)(=O)N2CCc3ccccc32)s1	inactive
13	Oc1ccc(C[C@H]2CNC(=S)N2CC2CCCN2C[C@H](Cc2ccc(O)cc2)N2C[C@H](Cc3ccc(O)cc3)N(CC3CCCCCC3)C2=S)cc1 (stereo not given in full)	inconclusive: 18.4 µM [falling, single point]
14	CCOc1ccccc1OCC(=O)Nc1ccc(S(=O)(=O)N(C)C)cc1	inconclusive: 16.4 µM [activator, partial curve, poor fit]
15	CC1Cc2ccccc2C(=O)N1 (stereo not given)	inconclusive: 2.91 µM [falling, partial curve, poor fit]
16	CCOC(=O)N/N=C\c1cccc(OC)c1OC/C=C/c1ccccc1	inconclusive: 13 µM [activator, partial curve, poor fit]
17	N/C(=N\OC(=O)C12CC3CC(CC(C3)C1)C2)c1cccnc1	inconclusive: 29.1 µM [activator, single point]
18	CC1(C)CC2CC(C)(CN2S(=O)(=O)c2ccc(C(=O)Nc3cc(S(=O)(=O)N4CCOCC4)ccc3Cl)cc2)C1 (stereo not given)	inconclusive: 3.66 µM [falling, partial curve, poor fit]
19	Cc1ccc(C(=O)N2CCCC2)cc1S(=O)(=O)Nc1cccc(C)c1C	inconclusive: 20.6 µM [falling, partial curve, poor fit]
